Laboratory results taken from publication PMC5996148.
Some of the results follow.

Key:
Test in all cases: protein microarray (ProtoArray v5.0), streptavidin-Alexa Fluor 647
Conditions in all cases: 3'-biotin; 20 mM Tris (pH 7.5), 5 mM MgCl2, 100 mM KCl, 0.1% Tween-20, A/T-rich and random oligonucleotide blockers; temperature not stated; high values mean tight binding
METTL2B (human) = test system: METTL2B (human)
METTL6 (human) = test system: METTL6 (human)
METTL8 (human) = test system: METTL8 (human)
METTL9 (human) = test system: METTL9 (human)
MFGE8 (human) = test system: MFGE8 (human)
MFN1 (human) = test system: MFN1 (human)
MGAT4B (human) = test system: MGAT4B (human)
MGC10334 (human) = test system: MGC10334 (human)
MGC10600 (human) = test system: MGC10600 (human)
MGC10955 (human) = test system: MGC10955 (human)
MGC10997 (human) = test system: MGC10997 (human)
MGC13057 (human) = test system: MGC13057 (human)
MGC15705 (human) = test system: MGC15705 (human)
MGC21675 (human) = test system: MGC21675 (human)
MGC23270 (human) = test system: MGC23270 (human)
MGC23985 (human) = test system: MGC23985 (human)
MGC24103 (human) = test system: MGC24103 (human)
MGC24125 (human) = test system: MGC24125 (human)
MGC26733 (human) = test system: MGC26733 (human)
MGC29506 (human) = test system: MGC29506 (human)

## GGGAGGCTGAGGCAGG [G4-1 biotinylated (PQS2)]
METTL2B (human)
  binding signal: -0.335 z-score
METTL6 (human)
  binding signal: -0.295 z-score
METTL8 (human)
  binding signal: -0.291 z-score
METTL9 (human)
  binding signal: -0.331 z-score
MFGE8 (human)
  binding signal: -0.347 z-score
MFN1 (human)
  binding signal: -0.297 z-score
MGAT4B (human)
  binding signal: -0.333 z-score
MGC10334 (human)
  binding signal: -0.328 z-score
MGC10600 (human)
  binding signal: -0.33 z-score
MGC10955 (human)
  binding signal: -0.327 z-score
MGC10997 (human)
  binding signal: -0.319 z-score
MGC13057 (human)
  binding signal: -0.346 z-score
MGC15705 (human)
  binding signal: -0.287 z-score
MGC21675 (human)
  binding signal: -0.275 z-score
MGC23270 (human)
  binding signal: -0.349 z-score
MGC23985 (human)
  binding signal: -0.347 z-score
MGC24103 (human)
  binding signal: -0.357 z-score
MGC24125 (human)
  binding signal: -0.338 z-score
MGC26733 (human)
  binding signal: -0.311 z-score
MGC29506 (human)
  binding signal: -0.341 z-score
